Results deposited as PubChem BioAssay AID686937 (Drosophila RNAi Screening Center, 2013)
Assay: 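Genes whose loss weakens secretory pathway function in fly cells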 (primary screen). Cells: Drosophila S2 cells expressing secreted horseradish peroxidase. Reagent: long dsRNA against Drosophila genes. Timing: about 5.5 days (5 days dsRNA, then 12 h reporter induction). Treatment: reporter expression induced after 5 days of dsRNA, read 12 h later; inducer not stated. Measurement: 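Chemiluminescent measurement of peroxidase in the medium 12 h after reporter induction, following 5 days of dsRNA, given as a z-score per plate; higher means more secretion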. Scale: z-score: higher = more reporter secreted into medium.
The deposit covers about 23,000 reagents; this is a random part of those with a known target gene and a result. 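Reduced-secretion tags in replicate 1 do not always agree with the z-scores; no criterion for assigning the tags was given.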 Not all columns of the deposit are shown. The record does not give: the amount of reagent.

| Gene | dsRNA | z-score, replicate 1 | z-score, replicate 2 | z-score, replicate 3 | z-score, replicate 4 |
| --- | --- | --- | --- | --- | --- |
| Cyp4p2 (Cytochrome P450 4p2) | DRSC07373 | 0.46 | 0.56 | – | – |
| CG1143 | DRSC08188 | -0.01 | 0.25 | – | – |
| for (foraging) | DRSC00195 | -0.63 | 0.27 | – | – |
| for (foraging) | DRSC00818 | 0.51 | 0.43 | – | – |
| CG31380 | DRSC15688 | 0.07 | 0.3 | – | – |
| CG3328 | DRSC04357 | 0.13 | 0.26 | – | – |
| enc (encore) | DRSC08716 | 0.2 | 0.22 | – | – |
| DptA (Diptericin A) | DRSC07404 | 0.26 | 0.47 | – | – |
| Upf2 | DRSC18218 | 0.55 | 0.86 | – | – |
| CG5913 | DRSC15916 | 0.18 | 0.15 | – | – |
| Rab10 | DRSC20572 | -0.7 | 0.17 | – | – |
| AP-1sigma (Adaptor Protein complex 1, sigma subunit) | DRSC15899 | -6.56 | 0.34 | – | – |
| CG11807 | DRSC06087 | 0.41 | 0.22 | – | – |
| CG16984 | DRSC08500 | 0.33 | 0.38 | – | – |
| CG3732 | DRSC04410 | 0.05 | 0.17 | – | – |
| mfrn (mitoferrin) | DRSC15687 | 0.06 | -1.42 | – | – |
| CG3598 | DRSC18471 | -0.01 | -0.14 | – | – |
| CG13896 | DRSC08366 | 0.31 | 0.28 | – | – |
| Taf1 (TBP-associated factor 1) | DRSC12607 | -1.94 | -1.65 | – | – |
| Camta (Calmodulin-binding transcription activator) | DRSC06440 | 0.27 | 0.21 | – | – |
| Camta (Calmodulin-binding transcription activator) | DRSC06441 | 0.39 | 0.21 | 0.25 | 0.39 |
| Camta (Calmodulin-binding transcription activator) | DRSC07272 | 0.35 | 0.27 | – | – |
| CG15772 | DRSC18078 | 0.14 | -0.38 | – | – |
| Bfc (Booster for Crq) | DRSC08623 | 0.3 | 0.12 | – | – |
| Sod3 (Superoxide dismutase 3) | DRSC07324 | 0.3 | 0.36 | – | – |
| lectin-21Ca | DRSC00541 | 0.27 | 0.07 | – | – |
| ric8a | DRSC18093 | -0.12 | 0.44 | – | – |
| CG31808 | DRSC22962 | 0.09 | 0.04 | – | – |
| DIP1 (DISCO Interacting Protein 1) | DRSC20818 | 0.5 | 0.31 | -0.24 | -0.8 |
| phu (phurba tashi) | DRSC16390 | 0.22 | 0.33 | – | – |
| Ant2 (Adenine nucleotide translocase 2) | DRSC19330 | 0.31 | 0.32 | – | – |
| Desat2 (Desaturase 2) | DRSC15919 | -0.16 | -0.47 | – | – |
| CanB2 (Calcineurin B2) | DRSC07355 | 0.77 | 0.62 | – | – |

Already shown: 2 of the entries above.
| Gene | dsRNA | z-score, replicate 1 | z-score, replicate 2 | z-score, replicate 3 | z-score, replicate 4 |
| --- | --- | --- | --- | --- | --- |
| enc (encore) | DRSC08716 | 0.2 | 0.22 | – | – |
| DptA (Diptericin A) | DRSC07404 | 0.26 | 0.47 | – | – |
